The supplement of paper PMC8166895
Where a name gives a salt, the structure may show the parent alone. The list shows a part of the results. Most entries show no effect beyond the scatter of the controls.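 A single-replicate pilot screen of approved drugs and clinical or known-target compounds measured melting temperature via differential scanning fluorimetry. Top stabilizing hits raised the melting point by 2 °C or more; negative shifts indicate destabilization.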

These compounds were tested on SARS-CoV-2 main protease (Mpro, nsp5) (assay: thermal shift ΔTm of Mpro relative to plate average Tm; higher = stronger thermal stabilization of Mpro (binding)). Conditions: 10 µM; protein concentration 1 µM.

| SMILES | thermal shift ΔTm of Mpro |
| --- | --- |
| COc1cc(C(=O)N2CCC(N3CCN(C)CC3)CC2)ccc1Nc1ncc2c(n1)N(C)c1ccccc1C(=O)N2C | 0.121 °C |
| C[C@](N)(Cc1ccc(O)c(O)c1)C(=O)O [L-(-)-α-Methyldopa] | -0.112 °C |
| C[C@@H](Nc1cc(F)cc(F)c1)c1cc(C(=O)N(C)C)cc2c(=O)cc(N3CCOCC3)oc12 | -0.172 °C |
| CC1=C(C(=O)Nc2ccc3[nH]ncc3c2)C(c2ccc(F)cc2)NC(=O)N1 (stereo not drawn) | 0.0333 °C |
| CCOC(=O)c1cnc2ccc(-c3cncc(NS(=O)(=O)c4ccccc4)c3)cn12 | 0.372 °C |
| COc1cc2c(c(OC)c1OC)-c1c(cc3c(c1OC)OCO3)CC(C)C(C)C2 (stereo not drawn) [Schisandrin B (Sch B)] | -0.157 °C |
| CCc1c2c(nc3ccc(O)cc13)-c1cc3c(c(=O)n1C2)COC(=O)[C@]3(O)CC | -0.121 °C |
| CCOC(=O)O[C@]1(C(=O)OCCl)CC[C@H]2[C@@H]3CCC4=CC(=O)C=C[C@]4(C)[C@H]3[C@@H](O)C[C@@]21C [Loteprednol etabonate] | -0.271 °C |
| CCc1cc2c(cc1N1CCC(N3CCOCC3)CC1)C(C)(C)c1[nH]c3cc(C#N)ccc3c1C2=O [Alectinib] | 0.0945 °C |
| CC(=O)O[C@@H]([C@@H](O)C[C@@H](C)C1=C2C[C@H](O)[C@H]3[C@@]4(C)CCC(=O)C(C)(C)[C@@H]4CC[C@]3(C)[C@@]2(C)CC1)C(C)(C)O [Alisol A 24-acetate] | -0.0526 °C |
| O=C(O)C(=O)O.[NH-][C@@H]1CCCC[C@H]1[NH-].[Pt+2] [Oxaliplatin] | 0.316 °C |
| Cc1ccc(NC(=O)c2ccc(CN3CCN(C)CC3)cc2)cc1Nc1nccc(-c2cccnc2)n1 [Imatinib Mesylate (STI571)] | -0.058 °C |
| Cc1ccc(NC(=O)c2ccc(CN3CCN(C)CC3)cc2)cc1Nc1nccc(-c2cccnc2)n1 [Imatinib (STI571)] | -0.00963 °C |
| CC(C)C(=O)Oc1ccc(CO)cc1[C@H](CCN(C(C)C)C(C)C)c1ccccc1 [Fesoterodine Fumarate] | -0.0365 °C |
| Cc1nn(-c2ccccc2)c(C)c1C=NN1CCN(Cc2ccccc2)CC1 | -0.0914 °C |
| O=C(N/N=C/c1coc2ccccc2c1=O)c1cccnc1 [STAT5 Inhibitor] | 0.0416 °C |
| O=C(NCC1(c2nc(-c3ccccc3)cs2)CCOCC1)c1cccc(-c2noc(C(F)(F)F)n2)c1 | -0.0658 °C |
| O=C(NCc1c(F)cc(F)cc1F)c1cn2c(c(O)c1=O)C(=O)N1[C@H]3CC[C@H](C3)O[C@@H]1C2 [Bictegravir] | -0.0131 °C |
| CC(=O)Oc1ccccc1C(=O)O [Aspirin] | 0.0239 °C |
| O=C(O)CNC(=O)c1c(O)c2ccccc2n(Cc2ccccc2)c1=O | -0.126 °C |
| CNS(=O)(=O)CCc1ccc2[nH]cc(C3CCN(C)CC3)c2c1 [Naratriptan] | 0.556 °C |
| O=C(Nc1nc2cccc(-c3ccc(CN4CCS(=O)(=O)CC4)cc3)n2n1)C1CC1 [Filgotinib (GLPG0634)] | -0.0706 °C |
| COc1ccc2ccc(=O)oc2c1CC=C(C)C [Osthole] | -0.147 °C |
| N=C(N)NS(=O)(=O)c1ccc(N)cc1 [Sulfaguanidine] | -0.0187 °C |

A second format for part of the listing above:
SMILES | thermal shift ΔTm of Mpro
CC1=C(C(=O)Nc2ccc3[nH]ncc3c2)C(c2ccc(F)cc2)NC(=O)N1 (stereo not drawn) | 0.0333 °C
N=C(N)NS(=O)(=O)c1ccc(N)cc1 [Sulfaguanidine] | -0.0187 °C

Remaining list, next part.

| SMILES | thermal shift ΔTm of Mpro |
| --- | --- |
| CSCC1CN(/N=C/c2ccc([N+](=O)[O-])o2)C(=O)O1 (stereo not drawn) [Nifuratel] | 0.153 °C |
| N=C(N)c1ccc2nc(-c3cc(CC(=O)N[C@@H](CC(=O)O)C(=O)O)cc(-c4cc(S(N)(=O)=O)ccc4O)c3O)[nH]c2c1 | -0.039 °C |
| C[C@H](NP(=O)(OC[C@H]1O[C@@H](n2ccc(N)nc2=O)C(F)(F)[C@@H]1O)Oc1ccccc1)C(=O)OCc1ccccc1 (stereo partly drawn) [Acelarin] | 0.0358 °C |
| C[C@]12CC[C@H](O)CC1=CC[C@@H]1[C@@H]2CC[C@]2(C)C(n3cnc4ccccc43)=CC[C@@H]12 [Galeterone] | -0.603 °C |
| Cc1c(C(=O)c2cccc3ccccc23)c2cccc3c2n1[C@H](CN1CCOCC1)CO3 [WIN 55,212-2 Mesylate] | -0.0483 °C |
| CC1=C(/C=C/C(C)=C/C=C/C(C)=C/C(=O)O)C(C)(C)CCC1 [Tretinoin] | -0.00731 °C |
| NC(=O)c1cc[n+](CC2=C(C(=O)[O-])N3C(=O)[C@@H](NC(=O)[C@@H](c4ccccc4)S(=O)(=O)O)[C@H]3SC2)cc1 [Cefsulodine sodium] | 0.0267 °C |
| Nc1nc(NC2CC2)cc(-c2cccc(Cl)c2Cl)n1 | -0.103 °C |
| O=[N+]([O-])c1cncn1CCN1CCOCC1 [Nimorazole] | 0.000875 °C |
| C=CC(=O)Nc1cc(Nc2nccc(-c3c[nH]c4ccccc34)n2)c(OC)cc1N(C)CCN(C)C | -0.0677 °C |
| C#Cc1cccc(Nc2ncnc3cc4c(cc23)OCCOCCOCCO4)c1 [Icotinib] | 0.0933 °C |
| C=CC(=O)Nc1cc(Nc2nccc(-c3cn(C)c4ccccc34)n2)c(OC)cc1N(C)CCN(C)C | -0.0123 °C |
| Cc1ccc(NCCCc2ccccc2)c(N)c1 | -0.389 °C |
| c1ccc(-c2[nH]ncc2-c2ccnc3ccccc23)nc1 | 0.0139 °C |
| OC(c1ccccc1)(c1ccccc1)C12CC[N+](CCOCc3ccccc3)(CC1)CC2 [Umeclidinium bromide] | 0.081 °C |
| Cc1cc(Nc2ncc3c(n2)N(C)C(=O)N(c2cc(NC(=O)c4cccc(C(F)(F)F)c4)ccc2C)C3)n(C)n1 [Pluripotin] | -0.136 °C |
| C[C@H](O)[C@H](O)[C@@H](O)[C@@H](O)C=O [L-(+)-Rhamnose Monohydrate] | -0.132 °C |
| O=C(O)c1ccc(-c2c[nH]c3ncc(-c4ccccc4)cc23)cc1C1CCCC1 | -0.235 °C |
| Cc1ncc(CO)c(CO)c1O [Pyridoxine HCl] | 0.111 °C |
| CN1CCc2cc(Cl)c(O)cc2[C@@H](c2ccccc2)C1 | -0.0735 °C |
| N[C@H]1C[C@@H]1c1ccc(-c2cccc(O)c2)cc1 | 0.0127 °C |
| O=C1c2ccccc2C(=O)C1c1ccc(Cl)cc1 [chlophenadione] | 0.259 °C |
| CC(C)(Sc1cc(C(C)(C)C)c(OC(=O)CCC(=O)O)c(C(C)(C)C)c1)Sc1cc(C(C)(C)C)c(OC(=O)CCC(=O)O)c(C(C)(C)C)c1 [Probucol disuccinate] | -2.54 °C |
| CC(=O)O[C@]1(C(C)=O)CC[C@H]2[C@@H]3C=C(Cl)C4=CC(=O)[C@@H]5C[C@@H]5[C@]4(C)[C@H]3CC[C@@]21C [Cyproterone Acetate] | -0.112 °C |
